Hit rate of the full screen: of about 360,000 compounds, about 7,500 (2.1%) were called active. Inconclusive means that the source gave no clear call. Such entries were picked first, then a sample of the others. Calls follow the shape of the dose curve; as a rule, active = well fitted inhibition curve with a large enough effect; inconclusive = small, poorly fitted or top-dose-only effect, or effect the other way; inactive = flat fitted curve, though single readings scatter. Potencies beside an inconclusive call are fits to weak or partial responses and may not hold up.
Experiment: Nrf2 qHTS screen for inhibitors; also: nearly all actives have a fitted effect of over 60% in size
Conditions: A549 ARE-Fluc reporter, luciferase luminescence, 18-24 h; series mostly up to 46 µM
How it was run: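 Nrf2 activity is the BugLite luminescence, read 15 min after reagent at room temperature, following CellTiter-Fluor cytotoxicity readout (30 min, 37C). Compound titrations were applied for 18-24 h to 5000 A549 ARE_Fluc cells/well in 5% FBS OPTI-MEM.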
In the case of Cc1oc(C(=O)O)cc1COc1cccc2ccccc12, the Potency is reported as inconclusive: 25.9 µM [falling, partial curve, poor fit].
For CCOCN(C(=O)Cn1c(C)nc2ccccc21)c1c(C)cccc1CC, the Potency was inconclusive: 4.61 µM [falling, partial curve, poor fit].
With CCCCOc1ccc(C(=O)Nc2ccc(OCC(=O)N3CCOCC3)cc2)cc1 the Potency was inconclusive: 29.1 µM [falling, single point].
In the case of COc1ccc(C2C=C3CNS(=O)(=O)C3CC2OC(=O)c2cccc(C)c2)cc1 (stereo unspecified), the Potency is reported as “inactive”.
With Cc1cc(C)cc(N2C(=O)CC(Sc3nnnn3-c3ccccc3)C2=O)c1 (stereo unspecified) the Potency was inconclusive: 23.1 µM [falling, partial curve, poor fit].
For O=C(COC(=O)CNC(=O)c1cccs1)Nc1ccccc1C(F)(F)F, the Potency was “inactive”.
In the case of Cc1ccc(OCC(=O)N2CCc3ccccc32)c([N+](=O)[O-])n1, the Potency is reported as inconclusive: 23.1 µM [activator, partial curve, poor fit].
For COc1cc2c(cc1NC(=O)CN1CCN(S(=O)(=O)c3ccc(C)cc3)CC1)oc1ccccc12, the Potency was inconclusive: 3.26 µM [falling, single point].
With CC(C)c1ccc(C2(O)C(=O)Nc3cc(Br)ccc32)c(O)c1 (stereo unspecified) the Potency was inconclusive: 0.731 µM [falling, full curve, poor fit].
With CN(C)S(=O)(=O)N1CCCC(C(=O)c2ccc(-c3ccccc3)cc2)C1 (stereo unspecified) the Potency was inconclusive: 29.1 µM [falling, single point].
For COc1cccc(OCc2cc(C(=O)NC(C)c3cnn(C)c3C)no2)c1 (stereo unspecified), the Potency was “inactive”.
In the case of COc1ccc(NC(=O)CN2C(=O)c3cccc4cccc2c34)cc1OC, the Potency is reported as inconclusive: 29.1 µM [falling, single point].
For COc1cc(OC)c(NC(=O)c2nc(-c3ccncc3)no2)cc1Cl, the Potency was inconclusive: 0.0116 µM [activator, full curve, poor fit].
In the case of CCCCCNC(=O)C1CCC(Cn2c(=O)c3sccc3n(CC(=O)N3CCCC3)c2=O)CC1 (stereo unspecified), the Potency is reported as inconclusive: 5.17 µM [falling, single point].
With CSc1ncc(C(=O)Nc2ccc(Cl)cc2)c(C)n1 the Potency was inconclusive: 29.1 µM [activator, single point].
In the case of CCOCCOC(=O)C1=C(C)NC(=O)NC1c1ccc2c(c1)OCO2 (stereo unspecified), the Potency is reported as “inactive”.
In the case of CN1CCCNc2nc3ccccc3nc21, the Potency is reported as inconclusive: 23.1 µM [activator, single point].
For N#Cc1ccc(S(=O)(=O)N2CCN(c3nc(-c4cccs4)nc4ccccc34)CC2)cc1, the Potency was “inactive”.
With COc1ccccc1C(=O)NC(=S)N1CCc2ccccc21 the Potency was inconclusive: 20.6 µM [activator, partial curve, poor fit].
For CC(=O)c1ccc(N/C=C\C(=O)c2ccc(C)cc2)cc1, the Potency was inconclusive: 6.51 µM [activator, partial curve].
For CC1CCc2c(sc(NC(=O)c3ccco3)c2C(=O)O)C1 (stereo unspecified), the Potency was inconclusive: 11.6 µM [falling, partial curve].
In the case of COc1cc(/C=C2/C(=O)NN(c3ccc(C)c(Cl)c3)C2=O)cc([N+](=O)[O-])c1O, the Potency is reported as “inactive”.
For Cc1cccc2c1-c1sc(C(=O)Nc3cccnc3)cc1CO2, the Potency was inconclusive: 23.1 µM [falling, single point].
With O=c1c2cc3c(cc2n(Cc2cccc(F)c2)c(=O)n1Cc1nc(-c2ccccc2)no1)OCO3 the Potency was inconclusive: 16.4 µM [activator, partial curve, poor fit].
With CCN(C(=O)COC(=O)C1CCC(C(C)(C)C)CC1)c1c(N)n(Cc2ccccc2)c(=O)[nH]c1=O (stereo unspecified) the Potency was active: 13 µM.
With Cc1oc(-c2ccccc2F)nc1CS(=O)CC(=O)NCc1ccccc1 (stereo unspecified) the Potency was inconclusive: 29.1 µM [activator, single point].
With OC1CCCN(CC(O)COc2ccc(-c3ccccc3)cc2)C1 (stereo unspecified) the Potency was inconclusive: 9.2 µM [activator, partial curve, poor fit].
In the case of COc1ccc(-n2ncc3c(N4CCCc5ccccc54)ncnc32)cc1, the Potency is reported as inconclusive: 2.91 µM [activator, full curve].
In the case of Cc1ccc(N2C(=O)c3n[nH]c(C)c3C2c2ccc(C(C)C)cc2)cc1 (stereo unspecified), the Potency is reported as inconclusive: 18.4 µM [falling, single point].
For CCN(CCCNC(=O)C1CCN(S(=O)(=O)CC)CC1)c1cccc(C)c1, the Potency was inconclusive: 2.31 µM [activator, full curve, poor fit].
In the case of CCOC(=O)c1c(S(=O)(=O)N2CCN(c3ccccc3OC)CC2)c(C)n(C)c1C, the Potency is reported as “inactive”.
With CC(=O)OCC(=O)C1(O)CCC2C3CC(C)C4=CC(=O)C=CC4(C)C3=CCC21C (stereo unspecified) the Potency was active: 2.06 µM.
With Nc1ccccc1/C=C/c1ccccc1N the Potency was inconclusive: 11.6 µM [activator, partial curve].
In the case of C=CCN=C1NN=C(c2ccc3c(c2)OCCO3)CS1, the Potency is reported as inconclusive: 29.1 µM [falling, single point].
In the case of CCCCCc1ccc(CC(=O)Nn2c(C)nc3ccccc3c2=O)cc1, the Potency is reported as inconclusive: 29.1 µM [falling, single point].
For NC(N)=NCc1cccc(I)c1, the Potency was inconclusive: 23.1 µM [falling, single point].
For NS(=O)(=O)c1ccc(NC(=O)c2cc(-c3ccccc3O)n[nH]2)cc1, the Potency was “inactive”.
With O=C(Nc1sc2c(c1C(=O)O)CCC2)c1ccccc1 the Potency was inconclusive: 4.11 µM [falling, full curve].
For c1ccc(Cc2ccc(OCCn3ccnc3)cc2)cc1, the Potency was inconclusive: 18.4 µM [falling, single point].
With COc1ccccc1N1CCN(C(=O)C2CCN(S(=O)(=O)c3ccc(C)cc3)CC2)CC1 the Potency was inconclusive: 20.6 µM [falling, single point].
In the case of COc1ccc(C(=O)NC(=S)Nc2nc(C)cc(C)n2)cc1Br, the Potency is reported as inconclusive: 23.1 µM [activator, single point].
In the case of COc1cccc(NC(=O)c2ccccc2)c1, the Potency is reported as inconclusive: 2.91 µM [activator, full curve, poor fit].
With COc1cc2c3c(c1)/C(=C1/SC(NC(C)=O)=NC1=O)C(=O)N3C(C)(C)C=C2C the Potency was inconclusive: 2.59 µM [falling, partial curve, poor fit].
In the case of O=c1n(-c2ccc(Br)cc2)cnn1-c1ncccc1[N+](=O)[O-], the Potency is reported as inconclusive: 8.2 µM [activator, partial curve].
In the case of COc1ccc(C(=O)NC(=S)N(Cc2ccccc2)Cc2ccccc2)cc1, the Potency is reported as active: 18.4 µM.
For Cc1ccc(Cl)cc1NC(=O)c1cccc(NC(=O)N2CCSc3ncccc32)c1, the Potency was inconclusive: 18.4 µM [falling, single point].
For CCOC(=O)CC1(C)SC(NC(C)=O)=NN1C(C)=O (stereo unspecified), the Potency was inconclusive: 2.59 µM [activator, full curve, poor fit].
In the case of CCc1ccc(NCc2cc3ccc(OC)cc3n(CC(=O)Nc3cccc(Cl)c3C)c2=O)cc1, the Potency is reported as “inactive”.
With COCCN1C(=O)c2[nH]nc(-c3c(C)cc(C)cc3O)c2C1c1cccc(O)c1 (stereo unspecified) the Potency was “inactive”.
For O=C(CSc1ccc(-c2ccccc2)nn1)N1CCCCC1, the Potency was inconclusive: 5.17 µM [activator, full curve].
For Nc1nnc(CCCCCc2nnc(N)s2)s1, the Potency was inconclusive: 0.184 µM [falling, full curve, poor fit].
For O=C(CCS(=O)(=O)c1ccccc1)NC1CCCCC1, the Potency was inconclusive: 4.11 µM [activator, full curve, poor fit].
In the case of COc1cccc(COC(=O)C2CC(=O)N(Cc3ccco3)C2)c1OC (stereo unspecified), the Potency is reported as inconclusive: 20.6 µM [activator, single point].
For CC(=O)c1ccc(NC(=O)C2CCC(CNS(=O)(=O)c3cccc4nsnc34)CC2)cc1 (stereo unspecified), the Potency was inconclusive: 2.31 µM [activator, partial curve, poor fit].
For COC(=O)C1=C(C)N(c2ccc(OC)cc2)C(C)=C(C(=O)OC)C1c1ccc(OC)cc1, the Potency was inconclusive: 14.6 µM [falling, partial curve, poor fit].
With Cc1csc(=Nc2ccccc2)n1Cc1ccco1 the Potency was “inactive”.
In the case of CC(C)(C)c1ccc(-n2ncc3c2CCCC3NC(=O)C2=NNC(=O)CC2)cc1 (stereo unspecified), the Potency is reported as active: 8.2 µM.
With O=[N+]([O-])c1ccccc1N/N=C1\CCc2ccccc21 the Potency was inconclusive: 1.84 µM [activator, full curve].
With COc1cccc(-c2cc(C(=O)NCc3ccc(Cl)cc3)no2)c1 the Potency was inconclusive: 2.59 µM [falling, partial curve, poor fit].
In the case of CCCOc1ccccc1OCC(=O)Nc1cccc(S(=O)(=O)NC2=NCCC2)c1, the Potency is reported as inconclusive: 20.6 µM [falling, partial curve, poor fit].
In the case of CC(C)(C)OC(=O)N1CCC(c2c(C(=O)N3CCN(C(=O)c4ccco4)CC3)cnn2-c2ccc(Cl)cc2)CC1, the Potency is reported as inconclusive: 20.6 µM [activator, single point].
For CC(=O)c1c(C)[nH]c(C(=O)NCC2CCCCC2)c1C, the Potency was inconclusive: 32.6 µM [falling, single point].
In the case of c1ccc(-c2nc(N3CCOCC3)cc(N3CCOCC3)n2)cc1, the Potency is reported as “inactive”.
With O=C(Nc1ccc(Cl)c(Cl)c1)c1ccccc1 the Potency was inconclusive: 4.11 µM [activator, partial curve].
For Cc1ccccc1CS(=O)(=O)Cc1ccc(C(=O)NCc2ccco2)o1, the Potency was “inactive”.
In the case of O=c1c2ccccc2sn1-c1ccc(S(=O)(=O)N2CCCCC2)cc1, the Potency is reported as inconclusive: 14.6 µM [activator, partial curve, poor fit].
Potency is read from the fitted curve at half-maximal effect.
